# PubChem BioAssay AID590 (National Center for Advancing Translational Sciences (NCATS), 2007)
# In all, about 59,000 compounds went through this assay and about 6,500 (11%) were called active. Inconclusive results, whose numbers are uncertain, are shown with a selection of clear calls. No stated cut-off is given here; in the data, active means max dye-equivalent concentration above about 10 nM; inconclusive means mostly about 1.1 nM to 9.6 nM; inactive means weaker than that.
# Assay: qHTS Assay for Spectroscopic Profiling in A350 Spectral Region
# Settings: Compound autofluorescence, 340/450 nm, Alexa 350 dye-equivalents; hits give high values
row,SMILES,max dye-equivalent concentration
1,CC(C)CNC(=O)c1c(N)n(/N=C/c2ccccn2)c2nc3ccccc3nc12,inconclusive: 2.6 nM
2,Cc1nc2c([nH]1)C1(CCN(Cc3ccccc3)CC1)C(C#N)=C(N)O2,inconclusive: 8.7 nM
3,O=C(CCN1CCOCC1)Nc1ccc2c(c1)CCC2,inconclusive: 6.3 nM
4,N=C1C(c2nc3ccccc3c(=O)[nH]2)=C(O)CN1CCO,inconclusive: 3.2 nM
5,Cc1cc2occ(CC(=O)O)c2cc1C,inactive
6,Cc1c(-c2ccccc2)nc(N)c(C#N)c1-c1ccco1,active: 320 nM
7,COCCn1c(=O)c(-c2ccc(OC)cc2)nc2cnc(N3CCOCC3)nc21,active: 49 nM
8,Cn1c(N2CCOCC2)nc(-c2ccccc2)c1-c1ccccc1,inconclusive: 9.2 nM
9,CC(C)NC(=O)c1cc(C(=O)c2cc(Cl)ccc2O)coc1=N,active: 88 nM
10,CCOC(=O)N1CCN(C(=O)Nc2ccc(Cl)cc2)CC1,inconclusive: 1.7 nM
11,N#Cc1nc(-c2ccco2)oc1NCc1ccc(F)cc1,inconclusive: 4.1 nM
12,COc1ccc(CCNC(=O)CCn2c(=O)[nH]c3cc(OC)c(OC)cc3c2=O)cc1OC,inconclusive: 1.3 nM
13,COc1ccc(C(OC(=O)c2ccco2)C(=O)NCc2ccco2)cc1 (stereo not given),inactive
14,COC(=O)C1=C(NC(=O)c2cccc(C)c2)CCS1,inconclusive: 5 nM
15,COc1ccc(C(=O)N(CN2CCCC2=O)c2ccc(C)cc2)cc1,inconclusive: 2.3 nM
16,CCC(=O)Nc1ccc(NC(=O)c2ccccn2)cn1,inconclusive: 7.5 nM
17,CCN(CC)CCNC(=O)C1CCN(S(=O)(=O)N2CCCCC2)CC1,inconclusive: 1.1 nM
18,CCOC(=O)N1CCN(C(=O)c2ccc3c(=O)n(CCc4ccccc4)c(=O)[nH]c3c2)CC1,inconclusive: 1.8 nM
19,Cc1ccccc1NC(=O)CSc1nc(N)c(C#N)cc1C#N,inconclusive: 3.1 nM
20,CCS(=O)(=O)NCCc1cc2cc(C)c(C)cc2[nH]c1=O,inconclusive: 2.5 nM
21,CC(C)COC(=O)NCC12C=CC(O1)C1C(=O)N(c3ccc(Cl)cc3)C(=O)C12 (stereo not given),inactive
22,CCCC1=C(C(=O)OCC)C(c2ccc(F)cc2)n2ncnc2N1 (stereo not given),inconclusive: 1.1 nM
23,CCN(C(=O)COc1ncnc2ccc(Br)cc12)C1CCS(=O)(=O)C1 (stereo not given),inconclusive: 2 nM
24,CN1CCN(C(=O)c2ccc(S(=O)(=O)c3ccc(Br)cc3)cc2)CC1,active: 11 nM
25,CC1=C(C(=O)Nc2ccccc2)C(c2ccncc2)C(C#N)=C(SCC(=O)NC2CC2)N1 (stereo not given),inconclusive: 9.7 nM
26,CCOc1ccc(N2CC(=O)Nc3ccccc3NCC2=O)cc1,inconclusive: 1.7 nM
27,CC(=O)c1cccc(S(=O)(=O)N(Cc2cc3cc4c(cc3[nH]c2=O)OCCO4)CC2CCCO2)c1 (stereo not given),active: 32 nM
28,O=C(c1ccccc1)c1cccn1CC(=O)N1CCN(C2CCCCC2)CC1,inactive

# Molecules listed so far that have fluorine (two):
row,SMILES,max dye-equivalent concentration
11,N#Cc1nc(-c2ccco2)oc1NCc1ccc(F)cc1,inconclusive: 4.1 nM
22,CCCC1=C(C(=O)OCC)C(c2ccc(F)cc2)n2ncnc2N1 (stereo not given),inconclusive: 1.1 nM

# Going on with the list.

row,SMILES,max dye-equivalent concentration
1,CCO/C=N/c1c(C#N)c2c(c(=S)n1C)COC(C)(C)C2,inactive
2,CCOC(=O)C1=C(C)NC(SCC(=O)OC)=C(C#N)C1c1ccc(C(=O)OC)cc1 (stereo not given),inconclusive: 1.3 nM
3,COc1ccc(OC)c2[nH]c(=O)c(CCNS(=O)(=O)c3ccc(C)cc3)cc12,inconclusive: 8.7 nM
4,CCCc1noc2c1C(c1ccoc1)C(C#N)=C(N)N2 (stereo not given),inconclusive: 1.4 nM
5,Cc1cccc(-n2nnc(C(=O)NCc3ccco3)c2N)c1,inconclusive: 1.4 nM
6,COc1ccccc1OCc1ccc(C(=O)NCc2ccco2)o1,inconclusive: 6.8 nM
7,CC(C)(C)Oc1ncc(Br)c(OC(C)(C)C)n1,inconclusive: 4.4 nM
8,O=C(c1ccco1)n1nc(NCc2ccccc2)nc1NCc1ccccc1,inconclusive: 9.9 nM
9,COc1cc(CCC(=O)OCC(=O)Nc2ncc(Cl)cc2Cl)cc(OC)c1OC,inactive
10,COCCn1c(N)c(C(=O)Nc2sc3c(c2C(=O)OC)CCCC3)c2nc3ccccc3nc21,inactive
11,CCOc1cc(C(=O)Nc2ccc(N3CCN(S(C)(=O)=O)CC3)cc2)cc(OCC)c1OCC,inconclusive: 1.2 nM
12,c1ccc(-n2ncc3c2ncn2c(C4CCCCC4)nnc32)cc1,inconclusive: 5.8 nM
13,CCOP(=O)(c1ccc(N(C)C)cc1)C(O)c1c(Cl)cccc1Cl (stereo not given),inconclusive: 1.1 nM
14,CCN(CC)CCNC(=O)CCCCn1c(=S)[nH]c2c([nH]c3ccc(OC)cc32)c1=O,active: 30 nM
15,COCC(=O)Nc1nc2n(n1)C(c1ccccc1Cl)CC(c1ccc(OC)cc1)N2 (stereo not given),inconclusive: 2 nM
16,O=C(CSc1ccc2nnc(-c3ccccc3)n2n1)N1CCCCC1,active: 10 nM
17,Cc1[nH]n2c(=O)c(C#N)c(-c3ccccc3)nc2c1-c1ccccc1,inconclusive: 1.7 nM
18,N#Cc1cccc(-c2nc(Nc3ccncc3)c3ccccc3n2)c1,inconclusive: 2 nM
19,CCc1nn(CC(=O)NCCCN(CC)Cc2ccccc2)c(=O)c2cc3sccc3n12,inconclusive: 3.6 nM
20,CCOC(=O)N1CCC(n2c(SCC(=O)NCc3ccccc3)nc3ccccc3c2=O)CC1,inconclusive: 5.4 nM
21,O=C(CSc1nnc(CN2CCOCC2)n1-c1ccccc1)Nc1ccc(Cl)cc1,inconclusive: 1.1 nM
22,CCn1c(SCC(=O)NCc2ccccc2)nnc1-c1ccccc1O,inactive
23,Cc1cccc(C)c1NC(=O)CSCC(=O)c1ccc(O)c(O)c1,inconclusive: 2.2 nM
24,COc1nc2cc(C)ccc2cc1-c1noc(-c2cccnc2)n1,inconclusive: 1.9 nM
25,COc1ccc(C2C=C(c3ccc(C)cc3)Nc3ncnn32)cc1 (stereo not given),active: 180 nM
26,CCOc1ccccc1NC(=O)N1CCCC1C(=O)Nc1ccc(-n2cnnn2)c(C)c1 (stereo not given),inconclusive: 1.1 nM
27,C=CCNc1sc(C(=O)c2cccs2)c(N)c1C#N,active: 72 nM
